In the supplement of paper PMC10849652:
This is one part of the list.

By UniProt entry, the sequences of proteins in these tests, tags left out. Where a name states a change or a piece, a line headed by the entry shows the natural chain unless it says otherwise.
UniProt P32119: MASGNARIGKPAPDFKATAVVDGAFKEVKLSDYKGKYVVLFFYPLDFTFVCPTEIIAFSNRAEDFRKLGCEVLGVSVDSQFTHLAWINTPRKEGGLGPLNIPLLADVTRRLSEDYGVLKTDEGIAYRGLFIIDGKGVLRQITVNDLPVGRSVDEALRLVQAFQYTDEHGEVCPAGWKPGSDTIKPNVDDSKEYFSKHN
UniProt Q96BP3: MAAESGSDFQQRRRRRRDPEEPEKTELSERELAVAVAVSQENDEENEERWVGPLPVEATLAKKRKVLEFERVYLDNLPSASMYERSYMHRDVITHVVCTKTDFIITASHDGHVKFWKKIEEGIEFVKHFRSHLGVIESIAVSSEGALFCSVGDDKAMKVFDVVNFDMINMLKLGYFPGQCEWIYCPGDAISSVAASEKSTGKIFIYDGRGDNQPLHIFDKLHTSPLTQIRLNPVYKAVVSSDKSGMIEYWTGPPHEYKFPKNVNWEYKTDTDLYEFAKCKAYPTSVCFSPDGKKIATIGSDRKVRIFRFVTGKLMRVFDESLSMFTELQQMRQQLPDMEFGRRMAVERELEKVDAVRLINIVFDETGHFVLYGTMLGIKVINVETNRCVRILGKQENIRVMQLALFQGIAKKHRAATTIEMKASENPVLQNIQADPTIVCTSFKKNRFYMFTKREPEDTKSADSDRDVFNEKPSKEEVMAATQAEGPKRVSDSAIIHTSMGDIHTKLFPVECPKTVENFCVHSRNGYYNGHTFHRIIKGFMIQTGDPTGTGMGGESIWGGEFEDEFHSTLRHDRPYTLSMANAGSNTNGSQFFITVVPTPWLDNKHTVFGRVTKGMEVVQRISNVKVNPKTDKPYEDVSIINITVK
UniProt Q8TF05: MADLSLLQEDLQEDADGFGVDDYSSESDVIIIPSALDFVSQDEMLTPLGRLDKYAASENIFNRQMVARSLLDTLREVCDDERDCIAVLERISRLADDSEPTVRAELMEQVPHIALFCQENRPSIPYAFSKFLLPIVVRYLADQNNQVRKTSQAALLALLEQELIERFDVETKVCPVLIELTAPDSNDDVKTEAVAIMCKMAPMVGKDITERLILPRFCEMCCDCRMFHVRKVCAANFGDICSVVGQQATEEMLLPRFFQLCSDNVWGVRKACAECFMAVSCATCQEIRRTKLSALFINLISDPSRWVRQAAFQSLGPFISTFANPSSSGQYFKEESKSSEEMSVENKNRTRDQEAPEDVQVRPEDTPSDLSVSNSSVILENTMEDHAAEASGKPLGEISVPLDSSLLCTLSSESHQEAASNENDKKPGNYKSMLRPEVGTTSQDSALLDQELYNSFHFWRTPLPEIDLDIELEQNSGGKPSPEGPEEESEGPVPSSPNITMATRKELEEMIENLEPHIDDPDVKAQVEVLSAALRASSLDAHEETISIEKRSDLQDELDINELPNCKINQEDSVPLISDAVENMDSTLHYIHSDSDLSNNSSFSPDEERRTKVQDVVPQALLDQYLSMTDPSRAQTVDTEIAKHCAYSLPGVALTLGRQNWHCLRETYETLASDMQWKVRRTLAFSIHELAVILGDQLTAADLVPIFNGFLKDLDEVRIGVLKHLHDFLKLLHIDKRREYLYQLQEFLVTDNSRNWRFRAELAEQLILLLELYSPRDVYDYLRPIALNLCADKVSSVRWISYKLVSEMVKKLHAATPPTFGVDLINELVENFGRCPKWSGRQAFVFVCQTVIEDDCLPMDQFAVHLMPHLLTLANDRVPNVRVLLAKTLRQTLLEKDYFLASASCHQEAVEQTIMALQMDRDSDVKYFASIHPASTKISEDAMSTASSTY
UniProt P07225: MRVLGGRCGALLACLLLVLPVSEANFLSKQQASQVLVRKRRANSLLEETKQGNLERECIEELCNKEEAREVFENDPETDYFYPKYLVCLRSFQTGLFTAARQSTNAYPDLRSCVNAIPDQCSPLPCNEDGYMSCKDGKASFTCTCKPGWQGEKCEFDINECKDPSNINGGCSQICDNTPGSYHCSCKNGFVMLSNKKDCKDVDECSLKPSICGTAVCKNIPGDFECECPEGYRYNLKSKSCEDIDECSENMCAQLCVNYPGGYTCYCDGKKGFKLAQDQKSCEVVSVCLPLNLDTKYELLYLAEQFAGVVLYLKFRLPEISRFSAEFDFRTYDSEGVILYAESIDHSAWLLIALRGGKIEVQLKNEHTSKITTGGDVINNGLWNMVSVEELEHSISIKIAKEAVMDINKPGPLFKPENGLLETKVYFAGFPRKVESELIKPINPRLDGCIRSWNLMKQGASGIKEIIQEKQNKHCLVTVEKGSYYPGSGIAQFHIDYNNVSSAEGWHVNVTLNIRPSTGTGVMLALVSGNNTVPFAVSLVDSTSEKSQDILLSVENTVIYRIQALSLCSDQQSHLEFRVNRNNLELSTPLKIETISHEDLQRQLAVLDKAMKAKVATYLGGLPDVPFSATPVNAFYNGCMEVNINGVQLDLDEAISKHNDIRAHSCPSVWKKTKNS
UniProt Q14558: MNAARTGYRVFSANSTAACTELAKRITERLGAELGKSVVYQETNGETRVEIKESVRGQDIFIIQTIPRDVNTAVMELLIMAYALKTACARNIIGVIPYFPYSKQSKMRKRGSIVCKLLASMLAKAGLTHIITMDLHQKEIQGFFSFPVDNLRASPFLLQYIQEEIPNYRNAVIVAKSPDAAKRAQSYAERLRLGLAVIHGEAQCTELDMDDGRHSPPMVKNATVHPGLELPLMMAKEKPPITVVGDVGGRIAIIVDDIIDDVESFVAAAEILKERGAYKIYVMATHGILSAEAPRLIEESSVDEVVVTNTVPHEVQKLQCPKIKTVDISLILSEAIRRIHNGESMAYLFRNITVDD
UniProt P14314: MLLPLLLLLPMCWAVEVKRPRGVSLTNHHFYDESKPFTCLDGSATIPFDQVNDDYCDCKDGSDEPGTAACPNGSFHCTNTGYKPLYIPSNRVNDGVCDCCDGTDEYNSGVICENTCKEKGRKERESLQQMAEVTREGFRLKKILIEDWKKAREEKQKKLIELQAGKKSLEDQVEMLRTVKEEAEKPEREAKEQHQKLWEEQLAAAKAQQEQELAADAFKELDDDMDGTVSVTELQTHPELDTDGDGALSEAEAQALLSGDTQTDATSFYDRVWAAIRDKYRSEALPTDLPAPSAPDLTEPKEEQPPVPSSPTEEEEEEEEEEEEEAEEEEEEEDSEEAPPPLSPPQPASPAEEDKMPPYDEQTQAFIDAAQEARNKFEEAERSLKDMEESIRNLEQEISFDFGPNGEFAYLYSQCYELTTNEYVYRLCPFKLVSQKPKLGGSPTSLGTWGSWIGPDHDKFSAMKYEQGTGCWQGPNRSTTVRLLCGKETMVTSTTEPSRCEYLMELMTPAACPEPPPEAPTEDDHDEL
UniProt O60828: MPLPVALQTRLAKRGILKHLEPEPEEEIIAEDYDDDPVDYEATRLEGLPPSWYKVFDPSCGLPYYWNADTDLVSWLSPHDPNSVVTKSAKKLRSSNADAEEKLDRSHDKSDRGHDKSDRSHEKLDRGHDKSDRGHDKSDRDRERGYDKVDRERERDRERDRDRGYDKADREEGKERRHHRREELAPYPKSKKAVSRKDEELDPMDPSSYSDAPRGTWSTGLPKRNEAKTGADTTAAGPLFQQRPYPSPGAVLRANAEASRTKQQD
UniProt Q99873, whole entry, looked up: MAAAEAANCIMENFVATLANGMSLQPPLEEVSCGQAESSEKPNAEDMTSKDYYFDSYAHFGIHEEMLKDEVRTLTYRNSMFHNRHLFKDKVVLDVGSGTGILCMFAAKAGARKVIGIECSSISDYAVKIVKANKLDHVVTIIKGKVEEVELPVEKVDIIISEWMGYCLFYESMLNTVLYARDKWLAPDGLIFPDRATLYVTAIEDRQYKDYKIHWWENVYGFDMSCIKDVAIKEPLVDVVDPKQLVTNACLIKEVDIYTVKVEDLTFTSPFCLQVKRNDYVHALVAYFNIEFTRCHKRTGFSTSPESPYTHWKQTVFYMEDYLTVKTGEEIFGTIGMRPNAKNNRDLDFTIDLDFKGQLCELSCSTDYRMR
UniProt P41743, whole entry, looked up: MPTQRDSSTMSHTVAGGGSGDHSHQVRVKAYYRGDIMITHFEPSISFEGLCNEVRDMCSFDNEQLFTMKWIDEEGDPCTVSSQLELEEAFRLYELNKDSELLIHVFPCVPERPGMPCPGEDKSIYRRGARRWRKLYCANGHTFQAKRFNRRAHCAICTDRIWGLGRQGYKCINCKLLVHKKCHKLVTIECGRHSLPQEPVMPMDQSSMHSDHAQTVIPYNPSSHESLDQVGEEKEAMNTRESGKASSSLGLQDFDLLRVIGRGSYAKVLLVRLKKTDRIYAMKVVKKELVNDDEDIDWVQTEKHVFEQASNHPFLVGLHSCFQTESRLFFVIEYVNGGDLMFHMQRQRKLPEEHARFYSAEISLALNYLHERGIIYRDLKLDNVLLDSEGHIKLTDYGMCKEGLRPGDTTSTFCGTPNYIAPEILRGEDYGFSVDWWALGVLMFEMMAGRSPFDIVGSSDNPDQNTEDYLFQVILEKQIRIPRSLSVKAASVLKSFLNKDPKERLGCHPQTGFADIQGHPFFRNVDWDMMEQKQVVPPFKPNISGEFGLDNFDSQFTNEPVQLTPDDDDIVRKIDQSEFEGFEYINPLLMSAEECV
UniProt P62140, whole entry, looked up: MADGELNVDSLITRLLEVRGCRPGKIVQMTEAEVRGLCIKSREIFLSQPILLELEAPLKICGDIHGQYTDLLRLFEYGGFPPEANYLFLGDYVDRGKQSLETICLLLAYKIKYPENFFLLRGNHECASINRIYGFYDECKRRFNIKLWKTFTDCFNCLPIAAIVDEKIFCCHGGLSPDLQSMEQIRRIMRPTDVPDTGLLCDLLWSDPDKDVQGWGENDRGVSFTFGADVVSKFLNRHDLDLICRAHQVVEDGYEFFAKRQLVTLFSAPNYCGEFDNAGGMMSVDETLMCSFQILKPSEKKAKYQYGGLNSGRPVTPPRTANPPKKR
UniProt Q9Y570: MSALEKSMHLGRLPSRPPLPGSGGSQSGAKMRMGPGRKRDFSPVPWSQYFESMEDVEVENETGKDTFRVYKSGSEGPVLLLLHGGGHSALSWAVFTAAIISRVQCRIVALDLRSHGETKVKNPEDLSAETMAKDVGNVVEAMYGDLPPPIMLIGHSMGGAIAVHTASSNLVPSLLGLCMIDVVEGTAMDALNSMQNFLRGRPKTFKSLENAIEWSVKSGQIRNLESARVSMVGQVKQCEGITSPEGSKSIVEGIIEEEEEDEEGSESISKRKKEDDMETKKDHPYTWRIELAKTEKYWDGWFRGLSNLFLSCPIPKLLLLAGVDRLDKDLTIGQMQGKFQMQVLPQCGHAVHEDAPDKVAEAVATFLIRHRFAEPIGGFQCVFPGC
UniProt Q9UGJ0: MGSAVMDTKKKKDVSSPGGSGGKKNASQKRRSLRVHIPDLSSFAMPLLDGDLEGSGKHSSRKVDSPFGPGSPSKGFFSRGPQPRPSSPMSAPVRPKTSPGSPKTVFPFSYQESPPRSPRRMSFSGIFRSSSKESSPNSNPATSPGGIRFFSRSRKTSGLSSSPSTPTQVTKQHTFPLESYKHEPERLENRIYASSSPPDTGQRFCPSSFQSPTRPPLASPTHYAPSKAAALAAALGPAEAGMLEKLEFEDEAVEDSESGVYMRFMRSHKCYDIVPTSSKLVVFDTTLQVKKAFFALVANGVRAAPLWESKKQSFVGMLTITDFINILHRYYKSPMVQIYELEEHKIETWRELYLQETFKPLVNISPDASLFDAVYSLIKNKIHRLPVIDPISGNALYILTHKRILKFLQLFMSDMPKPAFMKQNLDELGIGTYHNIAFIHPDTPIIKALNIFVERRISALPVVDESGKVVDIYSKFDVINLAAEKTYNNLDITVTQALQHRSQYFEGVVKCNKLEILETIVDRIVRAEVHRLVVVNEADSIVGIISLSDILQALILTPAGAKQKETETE
UniProt P78395, whole entry, looked up: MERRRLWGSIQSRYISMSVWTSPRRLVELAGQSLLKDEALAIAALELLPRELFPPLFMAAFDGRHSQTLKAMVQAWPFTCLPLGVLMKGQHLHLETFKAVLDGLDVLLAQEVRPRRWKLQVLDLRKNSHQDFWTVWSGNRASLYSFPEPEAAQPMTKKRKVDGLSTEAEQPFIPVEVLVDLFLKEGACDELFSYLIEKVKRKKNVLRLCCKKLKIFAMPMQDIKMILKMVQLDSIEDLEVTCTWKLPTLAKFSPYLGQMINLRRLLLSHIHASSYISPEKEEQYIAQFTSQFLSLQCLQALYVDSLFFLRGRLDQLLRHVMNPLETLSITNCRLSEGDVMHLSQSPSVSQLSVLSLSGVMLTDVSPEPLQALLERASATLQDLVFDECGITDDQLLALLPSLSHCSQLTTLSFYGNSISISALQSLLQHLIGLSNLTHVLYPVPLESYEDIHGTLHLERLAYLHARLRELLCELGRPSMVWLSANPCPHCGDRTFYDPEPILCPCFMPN
UniProt Q8TAE6: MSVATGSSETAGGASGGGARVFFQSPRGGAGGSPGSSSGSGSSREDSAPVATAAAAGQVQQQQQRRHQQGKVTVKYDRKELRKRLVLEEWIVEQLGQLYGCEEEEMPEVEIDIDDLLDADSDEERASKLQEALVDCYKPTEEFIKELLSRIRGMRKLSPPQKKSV

Assays:
Assay in all cases: log2 fold change, soluble protein after heating vs DMSO (PISA); higher = thermal stabilisation; K562 cells, 10 uM, 30 min; active = over 0.2 and 3.5 SD of the protein, either way, in both replicates (recomputed)
[1] = compound: COC1=CC=C(C=C1)CN2C=CC3=C2C=C(C=C3)C(=O)NO
In short: (§1)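 For each measurement, 10 μM compound was applied for 30 min to K562 cells at 2×10^6 cells/mL. Aliquots were heated for 3 min across 48°C-58°C, pooled, and extracted in PBS with 0.5% NP-40 at 4°C; the supernatant after 21,000xg for 90 min was soluble protein. This was quantified by TMTpro 16plex LC-MS/MS with channel sums equalised, and thermal stability was reported relative to control samples from duplicates, on a log2 fold-change scale.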

[2] = compound: CON(C)C(=O)N1N=C(c2cc(F)ccc2F)S[C@@]1(CCCN)c1ccccc1 [filanesib]
In short: as §1

[3] = compound: CO[C@H]1C[C@@H]2CC[C@@H](C)[C@@](O)(O2)C(=O)C(=O)N2CCCC[C@H]2C(=O)O[C@H]([C@H](C)C[C@@H]2CC[C@H](n3cnnn3)[C@H](OC)C2)CC(=O)[C@H](C)/C=C(\C)[C@@H](O)[C@@H](OC)C(=O)[C@H](C)C[C@H](C)/C=C/C=C/C=C/1C [zotarolimus]
In short: as §1

[4] = compound: COc1cc(C(=O)O)ccc1NC(=O)[C@@H]1N[C@@H](CC(C)(C)C)[C@](C#N)(c2ccc(Cl)cc2F)[C@H]1c1cccc(Cl)c1F [idasanutlin]
In short: as §1

[5] = compound: COc1cc(Nc2ncc3c(n2)-c2ccc(Cl)cc2C(c2c(F)cccc2OC)=NC3)ccc1C(=O)O [alisertib]
In short: as §1

[6] = compound: COc1cc2nc(-c3cc(F)ccc3O)nc(N[C@@H]3CNC[C@H]3C(C)(C)O)c2cc1OC
In short: as §1

[7] = compound: COc1cc2ncnc(Nc3ccc(F)c(Cl)c3)c2cc1OCCCN1CCOCC1 [gefitinib]
In short: as §1

[8] = compound: COc1cccc2cc(-c3nc([C@H]4CC[C@H](C(=O)O)CC4)n4ncnc(N)c34)[nH]c12
In short: as §1

[9] = compound: CS(=O)(=O)CCNCc1ccc(-c2ccc3ncnc(Nc4ccc(OCc5cccc(F)c5)c(Cl)c4)c3c2)o1 [lapatinib]
In short: as §1

[10] = compound: CS(=O)(=O)N1CCN(Cc2cc3nc(-c4cccc5[nH]ncc45)nc(N4CCOCC4)c3s2)CC1 [pictilisib]
In short: as §1

[11] = compound: CS(=O)(=O)c1ccc(-c2cnc(N)c(C(=O)Nc3ccccc3)n2)cc1
In short: as §1

[12] = compound: C[C@@H](Oc1cc(-c2cnn(C3CCNCC3)c2)cnc1N)c1c(Cl)ccc(F)c1Cl [crizotinib]
In short: as §1

[13] = compound: C[C@@H]1COCCN1C2=NC(=NC(=C2)C3(CC3)S(=O)(=O)C)C4=C5C=CNC5=CC=C4
In short: as §1

[14] = compound: C[C@H](C1=CC=C(C=C1)C(=O)NC2=C3C=CNC3=NC=C2)N
In short: as §1

[15] = compound: C[C@H](Nc1ncnc2nc[nH]c12)c1cc2cccc(Cl)c2c(=O)n1-c1ccccc1 [duvelisib]
In short: as §1

[16] = compound: Cc1cc(Nc2cc(CN3CCOCC3)c3nc(C)c(Cc4ccc(Cl)cc4F)n3n2)n[nH]1 [gandotinib]
In short: as §1

[17] = compound: Cc1cc(Nc2cc(N3CCN(C)CC3)nc(Sc3ccc(NC(=O)C4CC4)cc3)n2)n[nH]1 [tozasertib]
In short: as §1

[18] = compound: Cc1cc(SCc2sc(-c3ccc(C(F)(F)F)cc3)nc2C)ccc1OCC(=O)O
In short: as §1

[19] = compound: Cc1ccc(-n2nc(C(C)(C)C)cc2NC(=O)Nc2ccc(OCCN3CCOCC3)c3ccccc23)cc1 [doramapimod]
In short: as §1

[20] = compound: Cc1ccc(C(=O)N(CCCN)[C@@H](c2nc3cc(Cl)ccc3c(=O)n2Cc2ccccc2)C(C)C)cc1 [ispinesib]
In short: as §1

Measured: log2 fold change

PRDX2 (UniProt P32119)
inactive: [1] -0.008 | [2] -0.031 | [3] 0.005 | [4] -0.003 | [5] -0.012 | [6] 0.021 | [7] 0.006 | [8] 0.074 | [9] -0.051 | [10] 0.032 | [11] 0.051 | [12] -0.01 | [13] 0.035 | [14] -0.021 | [15] 0.048 | [16] -0.044 | [17] -0.012 | [18] -0.015 | [19] -0.051 | [20] 0.016

PPWD1 (UniProt Q96BP3)
inactive: [1] 0.05 | [2] -0.059 | [3] -0.003 | [4] -0.033 | [5] -0.026 | [6] 0.071 | [7] 0 | [8] 0.005 | [9] -0.022 | [10] 0.044 | [11] 0.013 | [12] 0.058 | [13] 0.063 | [14] -0.061 | [15] 0.061 | [16] 0.001 | [17] -0.016 | [18] 0.045 | [19] -0.072 | [20] 0.019

PPP4R1 (UniProt Q8TF05)
inactive: [1] 0.058 | [2] -0.049 | [3] 0.047 | [4] -0.037 | [5] -0.058 | [6] 0.04 | [7] 0.016 | [8] -0.017 | [9] -0.034 | [10] -0.009 | [11] 0.033 | [12] -0.025 | [13] 0.085 | [14] -0.03 | [15] 0.028 | [16] -0.123 | [17] 0.012 | [18] 0.053 | [19] -0.018 | [20] 0.001

PROS1 (UniProt P07225)
inactive: [1] -0.038 | [2] 0.072 | [3] -0.044 | [4] 0.081 | [5] 0.047 | [6] -0.062 | [7] -0.017 | [8] 0.212 | [9] -0.035 | [10] 0.017 | [11] -0.029 | [12] 0.005 | [13] -0.089 | [14] 0 | [15] -0.045 | [16] 0.057 | [17] 0.015 | [18] -0.072 | [19] 0.015 | [20] 0.01

PRPF8 (UniProt Q6P2Q9)
inactive: [1] -0.01 | [2] 0.198 | [3] -0.003 | [4] 0.075 | [5] -0.026 | [6] 0.081 | [7] -0.065 | [8] -0.049 | [9] 0.043 | [10] -0.04 | [11] -0.036 | [12] 0.018 | [13] -0.134 | [14] 0.114 | [15] -0.013 | [16] 0.021 | [17] 0.019 | [18] 0.026 | [19] 0.065 | [20] 0.046

PRPSAP1 isoform 2 (UniProt Q14558)
inactive: [1] -0.029 | [2] 0.013 | [3] 0.015 | [4] 0.017 | [5] -0.107 | [6] -0.042 | [7] -0.037 | [8] 0.015 | [9] 0.057 | [10] -0.026 | [11] 0.028 | [12] 0.024 | [13] -0.064 | [14] -0.011 | [15] -0.036 | [16] 0.042 | [17] 0.008 | [18] -0.059 | [19] -0.029 | [20] 0.051

PRKCSH (UniProt P14314)
inactive: [1] 0.091 | [2] -0.272 | [3] 0.068 | [4] 0.037 | [5] -0.049 | [6] 0.009 | [7] 0.001 | [8] 0.028 | [9] -0.01 | [10] -0.064 | [11] -0.034 | [12] 0.007 | [13] -0.058 | [14] -0.054 | [15] -0.072 | [16] -0.093 | [17] 0.029 | [18] 0.036 | [19] -0.013 | [20] 0.06

PQBP1 (UniProt O60828)
inactive: [1] -0.032 | [2] 0.066 | [3] 0.008 | [4] -0.031 | [5] 0.005 | [6] -0.009 | [7] -0.02 | [8] 0.041 | [9] -0.051 | [10] 0.002 | [11] 0.011 | [12] 0.03 | [13] -0.031 | [14] -0.148 | [15] 0.025 | [16] 0.008 | [17] -0.052 | [18] -0.045 | [19] -0.033 | [20] 0.004

PRMT1 (UniProt Q99873)
inactive: [1] -0.046 | [2] -0.099 | [3] 0.018 | [4] -0.052 | [5] -0.005 | [6] 0.02 | [7] -0.019 | [8] 0.029 | [9] 0.012 | [10] -0.015 | [11] 0.022 | [12] -0.042 | [13] 0.013 | [14] -0.103 | [15] 0.003 | [16] -0.074 | [17] -0.04 | [18] 0.024 | [19] -0.003 | [20] 0.059

PRKCI (UniProt P41743)
inactive: [1] -0.024 | [2] 0.036 | [3] 0.051 | [4] -0.007 | [5] -0.037 | [6] 0.042 | [7] 0.022 | [8] -0.023 | [9] 0.022 | [10] 0.004 | [11] 0.093 | [12] -0.057 | [13] -0.032 | [14] -0.02 | [15] 0.088 | [16] 0.014 | [17] 0.054 | [18] 0.1 | [19] -0.021 | [20] -0.028

PPP1CB (UniProt P62140)
inactive: [1] 0 | [2] -0.001 | [3] -0.004 | [4] 0 | [5] -0.048 | [6] -0.051 | [7] 0.034 | [8] 0.043 | [9] 0.008 | [10] 0.12 | [11] 0.006 | [12] -0.001 | [13] 0.103 | [14] -0.129 | [15] 0.033 | [16] -0.041 | [17] 0.028 | [18] 0.015 | [19] -0.006 | [20] 0.002

PPME1 (UniProt Q9Y570)
inactive: [1] -0.04 | [2] 0.006 | [3] 0.009 | [4] -0.054 | [5] -0.019 | [6] -0.034 | [7] 0.024 | [8] 0.031 | [9] 0.009 | [10] 0.076 | [11] 0.046 | [12] 0.022 | [13] 0.026 | [14] -0.017 | [15] 0.037 | [16] 0 | [17] 0.018 | [18] 0.019 | [19] -0.015 | [20] 0.102

PPP3CB isoform 4 (UniProt P16298)
inactive: [1] -0.128 | [2] 0.017 | [3] -0.024 | [4] -0.1 | [5] -0.009 | [6] 0.068 | [7] -0.004 | [8] 0.047 | [9] -0.041 | [10] 0.015 | [11] -0.005 | [12] 0.014 | [13] 0.06 | [14] 0.061 | [15] 0.024 | [16] -0.155 | [17] -0.011 | [18] -0.021 | [19] 0.031 | [20] -0.005

PRKAG2 (UniProt Q9UGJ0)
inactive: [1] -0.054 | [2] -0.108 | [3] 0.024 | [4] -0.045 | [5] -0.101 | [6] -0.072 | [7] 0.022 | [8] 0.034 | [9] 0.081 | [10] -0.037 | [11] 0.016 | [12] -0.188 | [13] 0.054 | [14] -0.051 | [15] 0.065 | [16] -0.171 | [17] -0.006 | [18] 0.017 | [19] -0.014 | [20] -0.023

PRAME (UniProt P78395)
inactive: [1] 0.026 | [2] 0.151 | [3] -0.004 | [4] 0.088 | [5] 0.003 | [6] -0.042 | [7] -0.049 | [8] -0.155 | [9] 0.089 | [10] -0.099 | [11] -0.159 | [12] -0.087 | [13] -0.114 | [14] 0.125 | [15] -0.092 | [16] -0.036 | [17] 0.049 | [18] 0.052 | [19] 0.06 | [20] -0.034

PPP1R14C (UniProt Q8TAE6)
inactive: [1] -0.145 | [2] 0.103 | [3] -0.006 | [4] -0.288 | [5] 0.003 | [6] -0.079 | [7] 0.037 | [8] 0.178 | [9] -0.117 | [10] 0.096 | [11] 0.036 | [12] 0.022 | [13] -0.128 | [14] -0.059 | [15] 0.153 | [16] -0.065 | [17] 0.06 | [18] -0.173 | [19] 0.005 | [20] 0.244

Quoted from the results shown (2 entries):
PPP3CB isoform 4 (UniProt P16298)
inactive: [1] -0.128 | [2] 0.017 | [3] -0.024 | [4] -0.1 | [5] -0.009 | [6] 0.068 | [7] -0.004 | [8] 0.047 | [9] -0.041 | [10] 0.015 | [11] -0.005 | [12] 0.014 | [13] 0.06 | [14] 0.061 | [15] 0.024 | [16] -0.155 | [17] -0.011 | [18] -0.021 | [19] 0.031 | [20] -0.005

PRKAG2 (UniProt Q9UGJ0)
inactive: [1] -0.054 | [2] -0.108 | [3] 0.024 | [4] -0.045 | [5] -0.101 | [6] -0.072 | [7] 0.022 | [8] 0.034 | [9] 0.081 | [10] -0.037 | [11] 0.016 | [12] -0.188 | [13] 0.054 | [14] -0.051 | [15] 0.065 | [16] -0.171 | [17] -0.006 | [18] 0.017 | [19] -0.014 | [20] -0.023
